From PMC9106668 come the findings set out here.

Results are given in words; binding and its absence hold for the method and conditions named. Some results given as binding are weak or reduced against the parent protein; the word gives no strength.

This test addresses CTTNBP2_(104–271) (UniProt B9EJA2). In words: zinc-induced pelleting assay (centrifugation, SDS-PAGE); recombinant CTTNBP2 (104-271) incubated with different concentrations of ZnCl2 for 1 h at 4 °C, centrifuged; pellet and supernatant on SDS-PAGE, Coomassie blue; both purified.

B1: CTTNBP2_(104–271) (domain or fragment, UniProt B9EJA2 104-271)
chain: TNPLSILEAVMAHCRKMQERMSAQLVAAESRQKKLEMEKLQLQALEQEHKKLAAHLEEERGKNKHVVLMLVKECKQLSGKVVEEAQKLEEVMAQLEEEKKKTSELEEQLSAEKQRSSGMEAQLEKQLSEFDTEREQLRAKLSREEAHTTDLKEEIDKMKKMMEQMKKG
Turning to B1, the binding result was “binds”.
